Consider five molecules from paper PMC5740495.

The chains behind the UniProt entries cited, without tags or fusion partners.
UniProt O15131: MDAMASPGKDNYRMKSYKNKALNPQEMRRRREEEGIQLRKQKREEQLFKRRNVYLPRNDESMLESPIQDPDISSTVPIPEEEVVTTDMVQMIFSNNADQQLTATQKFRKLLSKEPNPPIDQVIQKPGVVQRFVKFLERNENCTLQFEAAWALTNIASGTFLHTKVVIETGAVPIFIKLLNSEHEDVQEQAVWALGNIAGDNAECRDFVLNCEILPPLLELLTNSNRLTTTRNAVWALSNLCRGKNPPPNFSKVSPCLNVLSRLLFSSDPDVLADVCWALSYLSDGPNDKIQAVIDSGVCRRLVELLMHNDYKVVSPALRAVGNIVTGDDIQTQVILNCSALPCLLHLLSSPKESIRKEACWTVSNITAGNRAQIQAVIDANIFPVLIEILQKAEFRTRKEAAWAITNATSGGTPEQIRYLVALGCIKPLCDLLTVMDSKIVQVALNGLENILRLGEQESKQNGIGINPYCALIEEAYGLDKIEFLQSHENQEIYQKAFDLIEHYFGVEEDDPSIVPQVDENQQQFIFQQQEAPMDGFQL
UniProt Q92973: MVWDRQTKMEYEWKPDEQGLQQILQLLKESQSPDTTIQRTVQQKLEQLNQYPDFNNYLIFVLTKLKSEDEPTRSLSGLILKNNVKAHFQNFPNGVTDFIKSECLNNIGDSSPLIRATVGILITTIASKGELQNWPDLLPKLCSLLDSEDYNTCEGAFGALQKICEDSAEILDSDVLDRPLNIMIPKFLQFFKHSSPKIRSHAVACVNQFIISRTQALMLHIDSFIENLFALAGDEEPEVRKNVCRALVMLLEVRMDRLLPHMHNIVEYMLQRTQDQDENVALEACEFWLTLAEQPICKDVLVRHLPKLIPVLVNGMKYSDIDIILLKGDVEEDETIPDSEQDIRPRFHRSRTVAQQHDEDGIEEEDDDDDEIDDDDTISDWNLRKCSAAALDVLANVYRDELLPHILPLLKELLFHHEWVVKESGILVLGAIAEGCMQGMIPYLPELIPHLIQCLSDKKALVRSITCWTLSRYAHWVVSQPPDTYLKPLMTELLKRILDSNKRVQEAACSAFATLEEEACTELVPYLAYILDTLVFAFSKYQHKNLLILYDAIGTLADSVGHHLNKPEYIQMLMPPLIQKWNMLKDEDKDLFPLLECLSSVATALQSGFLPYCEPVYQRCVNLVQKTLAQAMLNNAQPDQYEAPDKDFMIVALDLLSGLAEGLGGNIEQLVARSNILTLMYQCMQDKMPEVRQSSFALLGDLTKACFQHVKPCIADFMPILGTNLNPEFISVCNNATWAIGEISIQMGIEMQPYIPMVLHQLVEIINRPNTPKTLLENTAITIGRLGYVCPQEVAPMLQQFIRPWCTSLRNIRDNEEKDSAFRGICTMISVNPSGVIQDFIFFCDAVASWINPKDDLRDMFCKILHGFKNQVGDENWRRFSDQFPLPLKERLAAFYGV
UniProt P49792: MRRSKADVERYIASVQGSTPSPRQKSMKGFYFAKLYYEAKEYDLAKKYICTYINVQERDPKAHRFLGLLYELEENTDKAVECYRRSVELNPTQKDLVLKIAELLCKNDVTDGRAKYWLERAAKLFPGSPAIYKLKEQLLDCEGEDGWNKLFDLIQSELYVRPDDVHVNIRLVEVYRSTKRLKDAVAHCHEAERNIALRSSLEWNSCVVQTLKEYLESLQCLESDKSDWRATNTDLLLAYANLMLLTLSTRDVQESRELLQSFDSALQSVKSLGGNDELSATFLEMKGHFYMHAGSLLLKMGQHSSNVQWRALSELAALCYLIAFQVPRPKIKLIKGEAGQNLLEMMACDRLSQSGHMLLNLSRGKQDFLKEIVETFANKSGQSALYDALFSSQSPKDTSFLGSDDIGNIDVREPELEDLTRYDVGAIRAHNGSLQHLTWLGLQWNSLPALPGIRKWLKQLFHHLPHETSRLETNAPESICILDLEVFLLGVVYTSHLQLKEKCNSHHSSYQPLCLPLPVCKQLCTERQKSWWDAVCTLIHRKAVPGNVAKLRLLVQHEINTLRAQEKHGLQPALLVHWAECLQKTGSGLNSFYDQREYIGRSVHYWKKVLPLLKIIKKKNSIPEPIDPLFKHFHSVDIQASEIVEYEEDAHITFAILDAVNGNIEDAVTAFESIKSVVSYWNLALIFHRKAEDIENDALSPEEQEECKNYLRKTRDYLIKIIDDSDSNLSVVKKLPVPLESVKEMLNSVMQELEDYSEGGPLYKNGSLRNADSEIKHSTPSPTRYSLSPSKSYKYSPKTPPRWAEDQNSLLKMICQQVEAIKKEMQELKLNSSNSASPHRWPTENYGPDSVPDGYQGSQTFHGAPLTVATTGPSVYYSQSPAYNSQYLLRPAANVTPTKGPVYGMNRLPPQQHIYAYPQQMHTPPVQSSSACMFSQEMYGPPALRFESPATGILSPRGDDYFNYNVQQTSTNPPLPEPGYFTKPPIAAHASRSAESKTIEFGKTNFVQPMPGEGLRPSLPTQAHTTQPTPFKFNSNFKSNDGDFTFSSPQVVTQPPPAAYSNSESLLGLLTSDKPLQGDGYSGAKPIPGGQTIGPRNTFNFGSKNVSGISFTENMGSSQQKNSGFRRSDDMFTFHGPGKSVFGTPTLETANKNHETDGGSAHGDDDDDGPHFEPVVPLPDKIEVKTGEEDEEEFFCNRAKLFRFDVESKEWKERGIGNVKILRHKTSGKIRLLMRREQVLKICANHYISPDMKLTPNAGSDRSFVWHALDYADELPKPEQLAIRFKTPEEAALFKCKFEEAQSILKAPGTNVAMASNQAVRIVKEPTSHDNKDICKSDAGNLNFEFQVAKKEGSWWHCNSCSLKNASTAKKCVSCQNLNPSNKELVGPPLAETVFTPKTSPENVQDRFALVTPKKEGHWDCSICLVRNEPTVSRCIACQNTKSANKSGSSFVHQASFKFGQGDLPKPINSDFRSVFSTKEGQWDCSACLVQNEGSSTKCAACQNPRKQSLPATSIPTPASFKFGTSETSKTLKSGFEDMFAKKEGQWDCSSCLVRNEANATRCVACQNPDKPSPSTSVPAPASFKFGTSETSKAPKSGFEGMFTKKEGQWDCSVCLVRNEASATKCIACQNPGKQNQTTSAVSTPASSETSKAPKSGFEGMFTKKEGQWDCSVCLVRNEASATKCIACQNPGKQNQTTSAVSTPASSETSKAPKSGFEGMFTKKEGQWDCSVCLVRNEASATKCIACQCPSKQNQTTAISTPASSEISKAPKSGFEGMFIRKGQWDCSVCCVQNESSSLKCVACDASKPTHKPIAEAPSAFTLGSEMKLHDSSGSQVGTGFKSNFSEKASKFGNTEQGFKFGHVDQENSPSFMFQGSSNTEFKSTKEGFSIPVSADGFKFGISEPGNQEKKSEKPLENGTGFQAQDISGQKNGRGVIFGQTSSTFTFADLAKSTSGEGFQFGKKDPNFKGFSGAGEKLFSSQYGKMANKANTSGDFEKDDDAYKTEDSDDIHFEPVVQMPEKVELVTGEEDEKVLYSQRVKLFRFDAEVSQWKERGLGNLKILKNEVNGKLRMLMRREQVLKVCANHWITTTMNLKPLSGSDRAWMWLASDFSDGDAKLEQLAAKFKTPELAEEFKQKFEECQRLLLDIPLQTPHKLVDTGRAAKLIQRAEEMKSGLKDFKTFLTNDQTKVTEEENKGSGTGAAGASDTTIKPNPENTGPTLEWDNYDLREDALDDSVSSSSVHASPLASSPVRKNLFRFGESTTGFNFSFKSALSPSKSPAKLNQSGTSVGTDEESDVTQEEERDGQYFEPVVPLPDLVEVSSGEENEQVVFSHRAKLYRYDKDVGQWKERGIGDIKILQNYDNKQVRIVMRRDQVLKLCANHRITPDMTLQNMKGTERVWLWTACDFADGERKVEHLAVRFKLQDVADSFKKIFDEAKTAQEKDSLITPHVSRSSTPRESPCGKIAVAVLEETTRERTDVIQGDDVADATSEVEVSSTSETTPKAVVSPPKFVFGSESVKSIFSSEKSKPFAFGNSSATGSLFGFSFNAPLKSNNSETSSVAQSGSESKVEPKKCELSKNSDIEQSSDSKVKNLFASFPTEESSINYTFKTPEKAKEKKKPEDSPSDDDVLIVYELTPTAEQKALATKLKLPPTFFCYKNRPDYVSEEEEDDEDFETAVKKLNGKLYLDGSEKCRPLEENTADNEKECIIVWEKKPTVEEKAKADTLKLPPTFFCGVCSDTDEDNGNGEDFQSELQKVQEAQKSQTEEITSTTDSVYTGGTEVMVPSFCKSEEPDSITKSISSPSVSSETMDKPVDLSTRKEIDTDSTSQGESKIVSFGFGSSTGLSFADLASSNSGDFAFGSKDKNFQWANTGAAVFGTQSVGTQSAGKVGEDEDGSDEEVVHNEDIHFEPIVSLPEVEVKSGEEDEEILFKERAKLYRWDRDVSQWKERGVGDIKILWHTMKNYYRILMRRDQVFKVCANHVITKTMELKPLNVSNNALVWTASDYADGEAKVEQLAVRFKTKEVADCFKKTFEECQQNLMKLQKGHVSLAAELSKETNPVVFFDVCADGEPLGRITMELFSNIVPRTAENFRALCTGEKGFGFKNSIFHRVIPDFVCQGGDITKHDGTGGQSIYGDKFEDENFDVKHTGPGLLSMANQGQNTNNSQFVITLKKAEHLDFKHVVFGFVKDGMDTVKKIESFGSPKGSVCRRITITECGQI
UniProt Q15596: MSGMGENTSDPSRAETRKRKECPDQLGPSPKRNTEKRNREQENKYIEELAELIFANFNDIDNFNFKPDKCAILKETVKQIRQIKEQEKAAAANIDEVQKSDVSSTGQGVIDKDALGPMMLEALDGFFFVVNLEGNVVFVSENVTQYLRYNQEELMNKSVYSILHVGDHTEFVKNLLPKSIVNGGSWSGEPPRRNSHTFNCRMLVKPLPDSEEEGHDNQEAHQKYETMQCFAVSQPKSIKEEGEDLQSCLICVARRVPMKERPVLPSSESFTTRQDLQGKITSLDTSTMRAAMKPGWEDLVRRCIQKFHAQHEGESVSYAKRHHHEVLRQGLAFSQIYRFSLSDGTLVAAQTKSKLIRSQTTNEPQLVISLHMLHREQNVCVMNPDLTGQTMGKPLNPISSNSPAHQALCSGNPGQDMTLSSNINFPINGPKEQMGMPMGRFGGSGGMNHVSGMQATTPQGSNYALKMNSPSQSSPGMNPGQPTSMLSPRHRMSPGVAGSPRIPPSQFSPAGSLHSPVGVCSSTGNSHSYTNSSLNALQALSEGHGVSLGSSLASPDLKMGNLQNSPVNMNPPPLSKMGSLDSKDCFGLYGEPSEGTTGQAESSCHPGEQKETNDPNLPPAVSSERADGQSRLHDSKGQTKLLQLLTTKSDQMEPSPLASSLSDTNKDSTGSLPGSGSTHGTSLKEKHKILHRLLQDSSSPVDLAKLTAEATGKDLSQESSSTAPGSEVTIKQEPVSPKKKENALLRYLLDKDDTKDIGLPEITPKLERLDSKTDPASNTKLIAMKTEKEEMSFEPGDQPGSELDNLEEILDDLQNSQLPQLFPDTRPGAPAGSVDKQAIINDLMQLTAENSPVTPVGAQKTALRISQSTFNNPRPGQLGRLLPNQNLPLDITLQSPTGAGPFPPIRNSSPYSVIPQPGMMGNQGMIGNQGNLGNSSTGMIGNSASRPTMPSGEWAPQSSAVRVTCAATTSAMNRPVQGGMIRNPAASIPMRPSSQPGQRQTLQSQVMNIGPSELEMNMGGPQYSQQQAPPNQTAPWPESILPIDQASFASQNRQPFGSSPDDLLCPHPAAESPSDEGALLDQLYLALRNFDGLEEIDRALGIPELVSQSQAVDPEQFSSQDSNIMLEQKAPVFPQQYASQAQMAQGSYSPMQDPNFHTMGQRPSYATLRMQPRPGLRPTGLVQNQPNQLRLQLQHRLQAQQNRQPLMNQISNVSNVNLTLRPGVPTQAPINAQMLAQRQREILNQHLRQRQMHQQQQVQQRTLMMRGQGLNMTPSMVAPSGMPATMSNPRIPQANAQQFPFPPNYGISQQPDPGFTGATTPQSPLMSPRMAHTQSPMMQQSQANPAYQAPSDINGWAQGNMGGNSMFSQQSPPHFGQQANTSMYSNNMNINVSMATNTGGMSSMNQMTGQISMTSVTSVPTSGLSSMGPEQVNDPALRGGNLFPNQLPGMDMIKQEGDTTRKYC

Among the targets are IMA6 (human) (UniProt O15131); IPO5 (human) (UniProt O00410); IMA5 (human) (UniProt P52294); IPO4 (human) (UniProt Q8TEX9); TNPO1 (human) (UniProt Q92973).
What all share (experiment): proximity labelling; BioID, large-scale, direct identification of biotinylated peptides: same NTR-BirA* lines; biotinylated peptides eluted from streptavidin beads with 80% ACN, 20% TFA after the on-bead digest, MS
The target of another assay is T1, TNPO2 (human) (UniProt O14787).
T1 sequence: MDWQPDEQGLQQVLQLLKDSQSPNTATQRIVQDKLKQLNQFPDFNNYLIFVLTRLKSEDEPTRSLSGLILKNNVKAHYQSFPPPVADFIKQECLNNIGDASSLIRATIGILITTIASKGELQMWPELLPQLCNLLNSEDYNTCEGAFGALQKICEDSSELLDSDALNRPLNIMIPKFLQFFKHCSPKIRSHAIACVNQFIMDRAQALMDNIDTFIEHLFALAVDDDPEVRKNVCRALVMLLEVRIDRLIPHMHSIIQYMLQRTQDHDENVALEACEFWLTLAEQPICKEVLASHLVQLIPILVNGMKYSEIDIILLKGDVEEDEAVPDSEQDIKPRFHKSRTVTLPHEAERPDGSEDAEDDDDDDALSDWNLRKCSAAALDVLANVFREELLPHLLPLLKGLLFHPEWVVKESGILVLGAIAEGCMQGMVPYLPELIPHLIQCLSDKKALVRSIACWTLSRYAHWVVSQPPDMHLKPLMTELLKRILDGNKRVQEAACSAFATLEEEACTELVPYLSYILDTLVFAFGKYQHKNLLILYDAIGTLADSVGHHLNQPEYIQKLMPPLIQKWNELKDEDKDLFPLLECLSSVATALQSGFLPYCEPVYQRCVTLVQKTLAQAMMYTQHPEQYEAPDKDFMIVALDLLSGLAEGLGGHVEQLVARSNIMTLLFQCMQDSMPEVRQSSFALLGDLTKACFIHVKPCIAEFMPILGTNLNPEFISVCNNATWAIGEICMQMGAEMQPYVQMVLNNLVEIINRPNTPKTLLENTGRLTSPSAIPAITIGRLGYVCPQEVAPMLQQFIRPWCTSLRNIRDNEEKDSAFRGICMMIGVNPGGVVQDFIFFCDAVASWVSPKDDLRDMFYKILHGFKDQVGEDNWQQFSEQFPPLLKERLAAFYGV

The target in assay [1] is T2, importin 13 (IPO13) (human) (UniProt O94829).
T2 sequence: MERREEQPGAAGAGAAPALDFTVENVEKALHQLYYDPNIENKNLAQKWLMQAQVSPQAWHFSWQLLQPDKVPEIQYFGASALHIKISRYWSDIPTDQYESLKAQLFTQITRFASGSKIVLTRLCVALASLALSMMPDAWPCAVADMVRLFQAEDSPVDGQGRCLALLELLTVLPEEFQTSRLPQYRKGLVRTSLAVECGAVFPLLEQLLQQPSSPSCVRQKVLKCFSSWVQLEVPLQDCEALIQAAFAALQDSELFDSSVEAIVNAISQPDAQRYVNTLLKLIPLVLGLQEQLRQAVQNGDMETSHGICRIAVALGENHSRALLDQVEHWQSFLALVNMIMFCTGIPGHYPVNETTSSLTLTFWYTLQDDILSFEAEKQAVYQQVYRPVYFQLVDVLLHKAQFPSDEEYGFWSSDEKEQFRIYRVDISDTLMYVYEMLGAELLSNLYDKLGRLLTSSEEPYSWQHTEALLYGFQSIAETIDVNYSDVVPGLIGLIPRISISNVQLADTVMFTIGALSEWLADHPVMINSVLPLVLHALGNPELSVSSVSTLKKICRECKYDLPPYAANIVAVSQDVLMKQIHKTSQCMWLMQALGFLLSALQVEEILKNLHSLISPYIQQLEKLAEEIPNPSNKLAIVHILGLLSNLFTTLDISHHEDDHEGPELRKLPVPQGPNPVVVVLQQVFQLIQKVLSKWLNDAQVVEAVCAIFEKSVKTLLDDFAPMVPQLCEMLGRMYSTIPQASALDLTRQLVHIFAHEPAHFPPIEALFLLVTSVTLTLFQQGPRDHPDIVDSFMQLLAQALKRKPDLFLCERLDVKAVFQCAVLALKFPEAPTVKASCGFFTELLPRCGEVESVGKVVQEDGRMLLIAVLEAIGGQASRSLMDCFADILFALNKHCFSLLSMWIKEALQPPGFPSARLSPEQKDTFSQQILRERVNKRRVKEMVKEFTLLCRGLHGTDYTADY

In the next assay the target is T3, IPO11 (human) (UniProt Q9UI26).
T3 sequence: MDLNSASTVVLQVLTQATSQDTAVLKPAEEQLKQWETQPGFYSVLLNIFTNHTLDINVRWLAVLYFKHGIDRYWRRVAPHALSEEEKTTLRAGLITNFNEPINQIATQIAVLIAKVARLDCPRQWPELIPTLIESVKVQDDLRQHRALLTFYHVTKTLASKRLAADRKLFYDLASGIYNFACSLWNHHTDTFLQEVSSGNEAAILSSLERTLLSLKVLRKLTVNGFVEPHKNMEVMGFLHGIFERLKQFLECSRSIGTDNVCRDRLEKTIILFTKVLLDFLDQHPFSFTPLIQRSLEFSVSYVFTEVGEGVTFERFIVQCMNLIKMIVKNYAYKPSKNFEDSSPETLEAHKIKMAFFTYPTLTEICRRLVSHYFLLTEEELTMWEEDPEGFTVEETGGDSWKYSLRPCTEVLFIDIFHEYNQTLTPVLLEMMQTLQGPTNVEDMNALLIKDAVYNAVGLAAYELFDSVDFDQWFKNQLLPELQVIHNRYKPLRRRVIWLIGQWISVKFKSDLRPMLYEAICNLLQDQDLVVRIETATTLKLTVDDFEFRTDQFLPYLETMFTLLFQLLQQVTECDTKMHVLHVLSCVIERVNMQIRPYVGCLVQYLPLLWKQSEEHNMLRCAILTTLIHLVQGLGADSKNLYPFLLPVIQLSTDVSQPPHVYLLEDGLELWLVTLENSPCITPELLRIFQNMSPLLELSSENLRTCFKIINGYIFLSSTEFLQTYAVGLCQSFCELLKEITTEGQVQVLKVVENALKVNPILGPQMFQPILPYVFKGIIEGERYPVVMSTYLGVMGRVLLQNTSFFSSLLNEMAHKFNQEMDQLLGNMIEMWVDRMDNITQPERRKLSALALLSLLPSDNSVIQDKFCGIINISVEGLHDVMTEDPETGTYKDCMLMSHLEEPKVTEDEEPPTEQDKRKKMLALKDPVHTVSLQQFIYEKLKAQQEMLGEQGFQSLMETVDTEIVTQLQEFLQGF

These are yes or no findings as the source states them, for the method shown. Binding seen in cells or lysates may run through a third protein. These calls come from enrichment with a bait or labelling near it, and not all partners need be listed.

As to “NUP358/RANBP2 (from UniProt P49792 1-3224)”, the binding result with IMA6 (human) is listed as “binds weakly”; in the assay with TNPO2 (human) it was “binds weakly”; in the assay with IPO5 (human), “binds”; in assay [1] it was “binds”; with IMA5 (human), “binds weakly”; with IPO4 (human), “binds”. Moreover, the binding result with IPO11 (human) is recorded as “binds”.
Turning to SRC2 (from UniProt Q15596 1-1464), in the assay with TNPO1 (human), the binding entry is reported as “binds”.

B1: BZW2 (protein, UniProt Q9Y6E2 1-419)
chain: MNKHQKPVLTGQRFKTRKRDEKEKFEPTVFRDTLVQGLNEAGDDLEAVAKFLDSTGSRLDYRRYADTLFDILVAGSMLAPGGTRIDDGDKTKMTNHCVFSANEDHETIRNYAQVFNKLIRRYKYLEKAFEDEMKKLLLFLKAFSETEQTKLAMLSGILLGNGTLPATILTSLFTDSLVKEGIAASFAVKLFKAWMAEKDANSVTSSLRKANLDKRLLELFPVNRQSVDHFAKYFTDAGLKELSDFLRVQQSLGTRKELQKELQERLSQECPIKEVVLYVKEEMKRNDLPETAVIGLLWTCIMNAVEWNKKEELVAEQALKHLKQYAPLLAVFSSQGQSELILLQKVQEYCYDNIHFMKAFQKIVVLFYKADVLSEEAILKWYKEAHVAKGKSVFLDQMKKFVEWLQNAEEESESEGEEN
For the molecule B1, the binding entry in the assay with IPO11 (human) was “binds”.

B2: SATB1 (protein, UniProt Q01826 1-763)
chain: MDHLNEATQGKEHSEMSNNVSDPKGPPAKIARLEQNGSPLGRGRLGSTGAKMQGVPLKHSGHLMKTNLRKGTMLPVFCVVEHYENAIEYDCKEEHAEFVLVRKDMLFNQLIEMALLSLGYSHSSAAQAKGLIQVGKWNPVPLSYVTDAPDATVADMLQDVYHVVTLKIQLHSCPKLEDLPPEQWSHTTVRNALKDLLKDMNQSSLAKECPLSQSMISSIVNSTYYANVSAAKCQEFGRWYKHFKKTKDMMVEMDSLSELSQQGANHVNFGQQPVPGNTAEQPPSPAQLSHGSQPSVRTPLPNLHPGLVSTPISPQLVNQQLVMAQLLNQQYAVNRLLAQQSLNQQYLNHPPPVSRSMNKPLEQQVSTNTEVSSEIYQWVRDELKRAGISQAVFARVAFNRTQGLLSEILRKEEDPKTASQSLLVNLRAMQNFLQLPEAERDRIYQDERERSLNAASAMGPAPLISTPPSRPPQVKTATIATERNGKPENNTMNINASIYDEIQQEMKRAKVSQALFAKVAATKSQGWLCELLRWKEDPSPENRTLWENLSMIRRFLSLPQPERDAIYEQESNAVHHHGDRPPHIIHVPAEQIQQQQQQQQQQQQQQQAPPPPQPQQQPQTGPRLPPRQPTVASPAESDEENRQKTRPRTKISVEALGILQSFIQDVGLYPDEEAIQTLSAQLDLPKYTIIKFFQNQRYYLKHHGKLKDNSGLEVDVAEYKEEELLKDLEESVQDKNTNTLFSVKLEEELSVEGNTDINTDLKD
Regarding B2, the binding result in assay [1] is given as “binds”.

B3: BZW1 (protein, UniProt Q7L1Q6 1-419)
chain: MNNQKQQKPTLSGQRFKTRKRDEKERFDPTQFQDCIIQGLTETGTDLEAVAKFLDASGAKLDYRRYAETLFDILVAGGMLAPGGTLADDMMRTDVCVFAAQEDLETMQAFAQVFNKLIRRYKYLEKGFEDEVKKLLLFLKGFSESERNKLAMLTGVLLANGTLNASILNSLYNENLVKEGVSAAFAVKLFKSWINEKDINAVAASLRKVSMDNRLMELFPANKQSVEHFTKYFTEAGLKELSEYVRNQQTIGARKELQKELQEQMSRGDPFKDIILYVKEEMKKNNIPEPVVIGIVWSSVMSTVEWNKKEELVAEQAIKHLKQYSPLLAAFTTQGQSELTLLLKIQEYCYDNIHFMKAFQKIVVLFYKAEVLSEEPILKWYKDAHVAKGKSVFLEQMKKFVEWLKNAEEESESEAEEGD
B3: the binding entry with IPO11 (human) is “binds”.
